Source: patent US12649751B2 (Arcus Biosciences, Inc., priority 2022, dated 2026)
Like-named read-outs stand apart in the source and are kept apart here. The match of structure and compound is tentative.

Protein sequences, listed by entry. Tags and fused reporters are not part of them.
UniProt Q92918, whole entry: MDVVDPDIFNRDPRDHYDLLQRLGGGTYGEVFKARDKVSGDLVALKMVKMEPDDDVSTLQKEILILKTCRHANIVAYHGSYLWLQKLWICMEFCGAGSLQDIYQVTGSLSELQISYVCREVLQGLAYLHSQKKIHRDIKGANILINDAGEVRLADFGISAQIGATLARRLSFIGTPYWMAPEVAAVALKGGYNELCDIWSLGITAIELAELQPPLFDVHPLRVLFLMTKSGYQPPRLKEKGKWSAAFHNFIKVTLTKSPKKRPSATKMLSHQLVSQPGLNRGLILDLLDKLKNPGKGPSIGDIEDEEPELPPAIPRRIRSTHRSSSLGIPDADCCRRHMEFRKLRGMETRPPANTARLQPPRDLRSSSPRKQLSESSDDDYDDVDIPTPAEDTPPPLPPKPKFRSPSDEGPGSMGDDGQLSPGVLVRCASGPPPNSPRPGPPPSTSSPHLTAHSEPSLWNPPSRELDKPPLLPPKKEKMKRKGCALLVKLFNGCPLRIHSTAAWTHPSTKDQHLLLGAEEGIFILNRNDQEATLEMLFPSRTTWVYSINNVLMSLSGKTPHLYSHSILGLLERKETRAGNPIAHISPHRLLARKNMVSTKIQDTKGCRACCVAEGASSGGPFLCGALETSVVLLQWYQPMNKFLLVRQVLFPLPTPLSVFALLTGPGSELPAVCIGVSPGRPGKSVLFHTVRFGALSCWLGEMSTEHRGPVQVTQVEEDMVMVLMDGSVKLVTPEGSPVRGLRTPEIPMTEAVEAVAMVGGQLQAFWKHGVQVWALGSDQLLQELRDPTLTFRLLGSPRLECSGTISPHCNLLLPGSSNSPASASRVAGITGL

Key:
[1] = test system: p-SLP-76 (Ser376) in Jurkat cells; test: pSLP76 Cellular Assay (AlphaLISA SureFire Ultra p-SLP-76 (Ser376), anti-CD3 activated Jurkat cells); settings: read-out: Cellular Potency
Method: pSLP76 cellular assay was performed using Jurkat cells and the AlphaLISA SureFire Ultra p-SLP-76 (Ser376) Assay Kit (PerkinElmer). Dose-response assays were performed in Greiner® Low Volume 384-well assay plates containing 200 nL of 22 serial 2-fold compound dilutions using Bravo and Echo. Jurkat cells were grown in RPMI-1640 supplemented with 10% FBS and PSG. The day prior to the assay, the cells were collected, and serum starved overnight in Opti-MEM. The day of the assay, the cells were collected and resuspended in HBSS. 100,000 cells/well were added to the compound plates and after a short spin, the plates were incubated at 37° C. for 1 h. The cells were activated by adding 10 μL of 0.025 mg/ml anti-CD3. Plates were then incubated at 37° C. for 45 min. Stimulation was terminated by adding […], followed by a brief centrifugation and 60 min of shaking at 300 rpm. Cell lysates (10 μL) were transferred to 384-well White Opti-plates and the samples were processed according to the manufacturer's directions. The fluorescence signal from pSLP76 was measured at 570 nm using Envision plate reader. IC50 values were determined by fitting the data to a standard 4-parameter logistic equation. The results are summarized in the Cellular Potency columns in Tables 4 and 5 below (Cellular Potency).

HPK1 = HPK1 (Homo sapiens, UniProt Q92918); test: HPK1 Biochemical Assay (ADP-Glo luminescence; low ATP 10 μM or high ATP 200 μM)
Method: Dose-response assays were performed in Corning® Low Volume 384-well assay plates containing 100 nL of 22 serial 2-fold compound dilutions. Wells containing DMSO alone were used as negative control. A kinase mixture (5 μL) containing 2 nM HPK1 (or 5 nM for high ATP assay) in assay buffer (50 mM Hepes pH 7.4, 10 mM MgCl2, 0.01% Brij-15, 0.01% bovine serum albumin, and 1 mM dithiothreitol) was added to the assay plates and incubated at 25° C. for 1 hour. Wells without HPK1 were used as positive control. A […] of 10 μM ATP (or 200 μM for high ATP) and 0.2 μg/μL […] was then added to the wells, resulting in a 10 μL total reaction volume. Following incubation of the assay plates at 25° C. for 1 hour, 10 μL of ADP-Glo reagent was added to the wells and the plates were incubated at 25° C. for a further 40 minutes (or 1 hour for high ATP assay). Finally, 20 μL of Kinase Detection Reagent was added, and the plates were incubated for another 30 minutes at 25° C. An Envision plate reader was then used to detect the luminescence signals. IC50 values were determined by fitting the data to a standard 4-parameter logistic equation. The results are summarized in the Biochemical Potency columns of Tables 4 and 5 below (Biochemical Potency (high ATP); Biochemical Potency (low ATP)).

| IC50 ([1]; Jurkat cells, anti-CD3 stimulation, pSLP76) [nM] | IC50 (HPK1; read-out: Biochemical Potency (low ATP), 2 nM HPK1, 10 μM ATP) [nM] | IC50 ([1]; pSLP76 (Ser376) AlphaLISA, anti-CD3 activated Jurkat cells) [nM] | IC50 (HPK1; read-out: Biochemical Potency (high ATP), HPK1 ADP-Glo assay, high ATP (200 μM ATP, 5 nM HPK1)) [nM] | SMILES |
| --- | --- | --- | --- | --- |
| > 5000 | < 100 |  |  | Cc1cccnc1-c1nc2cnc(Nc3cccc(N4CCC5NCCC54)n3)cc2s1 (stereo not shown) |
|  |  | 1000 to 5000 | < 100 | Cc1cc(Nc2cc3nc(-c4cccc(C(=O)N(C)C)c4)sc3cn2)nc(N2C[C@@H]3C[C@H]2CN3CC2CCOCC2)n1 |
